Taken from: PubChem BioAssay AID1259405 (NCATS, 2018)

Assay: 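Knock-downs that lift recombinant protein yield in hamster ovary cells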 (primary screen)
Cells: Chinese hamster CHO-K1 ovary cells with stable secreted eGFP expression
Reagents: single siRNA against mouse genes, 0.8 pmol siRNA per well (2 µl of 400 nM stock)
Time to read-out: 3 days
Measurement: 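Per-well intracellular GFP measured by laser scanning cytometry, plus viability from ATP luminescence, each relative to plate median of non-targeting control wells, in %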
Direction: GFP, % of control: higher = more GFP per well, higher productivity; viability (ATP), % of control: higher = more viable cells (more ATP)
Call rule: 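Called active when intracellular GFP, relative to negative control, is at or above 120%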
The deposit covers about 50,000 reagents; this is a random part of them. Over the whole deposit, about 4,000 (8%) are marked active. 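Mouse siRNA library applied to hamster cells; one well for each siRNA.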

gene | PubChem SID | GFP, % of control | viability (ATP), % of control | outcome
Washc1 (GeneID 68767) | SID363554542 | 77 | 74.4 | inactive
Washc1 (GeneID 68767) | SID363567989 | 19.6 | 23.7 | inactive
Washc1 (GeneID 68767) | SID363586048 | 93.6 | 103 | inactive
Atp5me (GeneID 11958) | SID363569030 | 113 | 83.5 | inactive
Atp5me (GeneID 11958) | SID363583462 | 57.2 | 49.8 | inactive
Isoc2b (GeneID 67441) | SID363540594 | 52.9 | 61.4 | inactive
Isoc2b (GeneID 67441) | SID363543045 | 91.9 | 75.3 | inactive
Isoc2b (GeneID 67441) | SID363552538 | 77.5 | 54.6 | inactive
Hcn1 (GeneID 15165) | SID363574385 | 129 | 109 | active
Hcn1 (GeneID 15165) | SID363575441 | 134 | 58.6 | active
Hcn1 (GeneID 15165) | SID363580017 | 98.3 | 83.6 | inactive
Tssk5 (GeneID 73542) | SID363547280 | 57 | 92.1 | inactive
Tssk5 (GeneID 73542) | SID363558049 | 58.9 | 68.7 | inactive
Tssk5 (GeneID 73542) | SID363559807 | 94.3 | 90.8 | inactive
F5 (GeneID 14067) | SID363581764 | 81.7 | 61.3 | inactive
F5 (GeneID 14067) | SID363589258 | 88.6 | 73.9 | inactive
Or7e170 (GeneID 258555) | SID363554565 | 28.4 | 30.8 | inactive
Or7e170 (GeneID 258555) | SID363568012 | 58.5 | 61.7 | inactive
Or7e170 (GeneID 258555) | SID363586071 | 109 | 114 | inactive

Part of the list above, showing only “viability (ATP), % of control”.
Atp5me (GeneID 11958) [SID363583462] = 49.8
Isoc2b (GeneID 67441) [SID363540594] = 61.4
Isoc2b (GeneID 67441) [SID363543045] = 75.3
Isoc2b (GeneID 67441) [SID363552538] = 54.6
Hcn1 (GeneID 15165) [SID363574385] = 109
Hcn1 (GeneID 15165) [SID363575441] = 58.6

The results go on.
gene | PubChem SID | GFP, % of control | viability (ATP), % of control | outcome
Rarb (GeneID 218772) | SID363571096 | 62.5 | 53.7 | inactive
Rarb (GeneID 218772) | SID363571448 | 80.4 | 84.3 | inactive
Rarb (GeneID 218772) | SID363571800 | 63.2 | 59.1 | inactive
Acsf3 (GeneID 257633) | SID363545118 | 144 | 100 | active
Acsf3 (GeneID 257633) | SID363548631 | 133 | 86.7 | active
Acsf3 (GeneID 257633) | SID363562437 | 31.8 | 23 | inactive
Atrn (GeneID 11990) | SID363541479 | 72.9 | 70.1 | inactive
Atrn (GeneID 11990) | SID363556106 | 74.3 | 68.4 | inactive
Atrn (GeneID 11990) | SID363566395 | 45.1 | 48.7 | inactive
Ywhaz (GeneID 22631) | SID363556836 | 90.5 | 63.2 | inactive
Ywhaz (GeneID 22631) | SID363563740 | 131 | 60.2 | active
Ywhaz (GeneID 22631) | SID363587286 | 89.9 | 101 | inactive
H2-Eb1 (GeneID 14969) | SID363553704 | 59.8 | 54.6 | inactive
H2-Eb1 (GeneID 14969) | SID363561661 | 80.5 | 74 | inactive
H2-Eb1 (GeneID 14969) | SID363565399 | 71.6 | 97.5 | inactive
Gabrr1 (GeneID 14408) | SID363574308 | 50.1 | 79.3 | inactive
Gabrr1 (GeneID 14408) | SID363575364 | 62.2 | 65.5 | inactive
Gabrr1 (GeneID 14408) | SID363579940 | 69.1 | 64.6 | inactive
Pak5 (GeneID 241656) | SID363570768 | 80.6 | 69.6 | inactive
Cntnap2 (GeneID 66797) | SID363568813 | 81.9 | 85.1 | inactive
Cntnap2 (GeneID 66797) | SID363576205 | 25.3 | 45.6 | inactive
Cntnap2 (GeneID 66797) | SID363579021 | 64.8 | 53.1 | inactive
Tfg (GeneID 21787) | SID363556482 | 75.4 | 74.9 | inactive
Tfg (GeneID 21787) | SID363586932 | 129 | 105 | active
Tfg (GeneID 21787) | SID363589040 | 118 | 144 | inactive
Exoc8 (GeneID 102058) | SID363540143 | 67.2 | 87.5 | inactive
Exoc8 (GeneID 102058) | SID363561444 | 120 | 93 | inactive
Exoc8 (GeneID 102058) | SID363564480 | 129 | 63.3 | active
Or5d37 (GeneID 258634) | SID363544645 | 48.9 | 57.2 | inactive
Or5d37 (GeneID 258634) | SID363550973 | 65.7 | 90.2 | inactive
Or5d37 (GeneID 258634) | SID363557522 | 83.4 | 67.5 | inactive
Brox (GeneID 71678) | SID363540790 | 89.1 | 94.1 | inactive
Brox (GeneID 71678) | SID363543241 | 108 | 96.9 | inactive
Brox (GeneID 71678) | SID363552734 | 72.2 | 96 | inactive
Usp10 (GeneID 22224) | SID363574563 | 54.2 | 81.6 | inactive
Usp10 (GeneID 22224) | SID363575619 | 49.9 | 54 | inactive
Usp10 (GeneID 22224) | SID363580195 | 59.2 | 60.6 | inactive
Vapa (GeneID 30960) | SID363582550 | 163 | 132 | active
Vapa (GeneID 30960) | SID363584310 | 61 | 76.3 | inactive
